Earlier results as cited in US20250084380A1, “ARTIFICIAL BRAIN TISSUE” (priority 2016, published 2025).
For at least one compound, name, drawing or mass did not settle the structure.

System: microglial-induced inflammation
Details: after TBI; cited from earlier work

SMILES: CN(C)c1ccc(O)c2c1C[C@H]1C[C@H]3[C@H](N(C)C)C(O)=C(C(N)=O)C(=O)[C@@]3(O)C(O)=C1C2=O [minocycline]
- microglial-induced inflammation and lesion severity: a decrease in microglial-induced inflammation and lesion severity
